Data from the supplement of paper PMC4604168 (melanoma cell lines).
This is one part of the list. Repeats are few or missing, and single values can be far off.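 Imaging used 1,536-well plates; nuclei positive for cleaved PARP by antibody were divided by total DNA-stained nuclei to yield the apoptosis fraction. Doses for screening kept most cells viable, and cell lines differ markedly in resting and induced cleaved-PARP levels.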

Experiments:
Assay in all cases: cleaved PARP positive nuclei fraction relative to DMSO control; melanoma cells; higher = more apoptosis
Conditions in all cases: library dose: low library concentration; 72 h
[1] = system: MZ2-MEL
[2] = system: MeWo
[3] = system: RPMI7951
[4] = system: RVH-421
[5] = system: SkMel28
[6] = system: SkMel2
[7] = system: SkMel30
[8] = system: SkMel5
[9] = system: UACC257
[10] = system: UACC62
[11] = system: WM115
[12] = system: WM1716
[13] = system: WM1745
[14] = system: WM3526
[15] = system: WM3619
[16] = system: WM451Lu

| Structure (SMILES) | cleaved PARP positive nuclei fraction [1] [%] | cleaved PARP positive nuclei fraction [2] [%] | cleaved PARP positive nuclei fraction [3] [%] | cleaved PARP positive nuclei fraction [4] [%] | cleaved PARP positive nuclei fraction [5] [%] | cleaved PARP positive nuclei fraction [6] [%] | cleaved PARP positive nuclei fraction [7] [%] | cleaved PARP positive nuclei fraction [8] [%] | cleaved PARP positive nuclei fraction [9] [%] | cleaved PARP positive nuclei fraction [10] [%] | cleaved PARP positive nuclei fraction [11] [%] | cleaved PARP positive nuclei fraction [12] [%] | cleaved PARP positive nuclei fraction [13] [%] | cleaved PARP positive nuclei fraction [14] [%] | cleaved PARP positive nuclei fraction [15] [%] | cleaved PARP positive nuclei fraction [16] [%] |
| --- | --- | --- | --- | --- | --- | --- | --- | --- | --- | --- | --- | --- | --- | --- | --- | --- |
| NC1(c2ccc(-c3nc4ccn5c(=O)[nH]nc5c4cc3-c3ccccc3)cc2)CCC1 + O=C(Nc1cccc(Cl)c1)Nc1ncc(CCNc2ncnc3ccsc23)s1 [SNS314] (first compound 0.4 µM, partner dose 0.0008 µM) | 155 | 72.1 | 59.1 | 224 | 252 | 42.2 | 66.4 | 72.1 | 322 | 222 | 453 | 67.1 | 96.7 | 144 | 93.4 | 59.3 |
| C[C@@H](N)c1ccc(C(=O)Nc2ccnc3[nH]ccc23)cc1 + Cn1cncc1[C@@](N)(c1ccc(Cl)cc1)c1ccc2c(c1)c(-c1cccc(Cl)c1)cc(=O)n2C [tipifarnib] (first compound 0.4 µM, partner dose 0.01 µM) | 97.2 | 334 | 87.2 | 151 | 70.2 | 162 | 66.4 | 58.4 | 83 | 44.6 | 73.3 | 242 | 117 | 28 | 104 | 31 |
| CCN(CC)CCNC(=O)c1c(C)[nH]c(/C=C2\C(=O)Nc3ccc(F)cc32)c1C [sunitinib] + Cn1cc(/C=C2\C(=O)Nc3cccnc32)c2ccccc21 [GW441756] (first compound 0.4 µM, partner dose 0.4 µM) | 103 | 147 | 143 | 26.6 | 204 | 57.1 | 245 | 86.9 | 191 | 103 | 42.3 | 83.8 | 112 | 88.2 | 75 | 70.3 |
| CC(=O)O[C@@]12CO[C@@H]1C[C@H](O)[C@@]1(C)C(=O)[C@H](O)C3=C(C)[C@@H](OC(=O)[C@H](O)[C@@H](NC(=O)OC(C)(C)C)c4ccccc4)C[C@@](O)([C@@H](OC(=O)c4ccccc4)[C@H]21)C3(C)C [Docetaxel] + COc1cc(N2CCC(N3CCN(C)CC3)CC2)ccc1Nc1ncc(Cl)c(Nc2ccccc2S(=O)(=O)C(C)C)n1 [NVP-TAE684] (first compound 0.0001 µM, partner dose 0.08 µM) | 587 | 492 | 191 | 348 | 1130 | 644 | 113 | 190 | 859 | 521 | 579 | 363 | 167 | 196 | 211 | 212 |
| CS(=O)(=O)c1ccc(C(=O)Nc2ccc(Cl)c(-c3ccccn3)c2)c(Cl)c1 [vismodegib] + COC(=O)c1sccc1S(=O)(=O)Nc1ccc(Nc2ccccc2)cc1OC [GSK0660] (first compound 1 µM, partner dose 1 µM) | 168 | 110 | 53.1 | 35.2 | 110 | 110 | 76.9 | 80.4 | 121 | 104 | 163 | 50.2 | 89 | 69.6 | 115 | 66.4 |
| CC1(C)CCC(c2ccc(Cl)cc2)=C(CN2CCN(c3ccc(C(=O)NS(=O)(=O)c4ccc(N[C@H](CCN5CCOCC5)CSc5ccccc5)c(S(=O)(=O)C(F)(F)F)c4)cc3)CC2)C1 + O=C(CCCCCCC(=O)Nc1ccccc1)NO [vorinostat] (first compound 0.4 µM, partner dose 0.08 µM) | 332 | 358 | 127 | 91.8 | 144 | 178 | 84.6 | 250 | 125 | 109 | 146 | 200 | 759 | 61.6 | 78.8 | 36.1 |
| CC(=O)O[C@@]12CO[C@@H]1C[C@H](O)[C@@]1(C)C(=O)[C@H](O)C3=C(C)[C@@H](OC(=O)[C@H](O)[C@@H](NC(=O)OC(C)(C)C)c4ccccc4)C[C@@](O)([C@@H](OC(=O)c4ccccc4)[C@H]21)C3(C)C [Docetaxel] + Cc1cc(N2CCOCC2)cc2[nH]c(-c3c(NC[C@@H](O)c4cccc(Cl)c4)cc[nH]c3=O)nc12 [BMS536924] (first compound 0.0001 µM, partner dose 0.2 µM) | 389 | 364 | 342 | 200 | 464 | 442 | 258 | 317 | 147 | 662 | 320 | 403 | 229 | 174 | 136 | 100 |
| CCCCCCCCc1ccc(CCC(N)(CO)CO)cc1 [fingolimod] + CC(C)CCN1c2nc(Nc3cc(F)c(O)c(F)c3)ncc2N(C)C(=O)C1C [BID1870] (first compound 2 µM, partner dose 0.2 µM) | 41 | 186 | 103 | 97.8 | 286 | 228 | 82.6 | 78.1 | 252 | 74.8 | 51.6 | 167 | 114 | 345 | 110 | 49.4 |
| COc1ccc(C2=N[C@@H](c3ccc(Cl)cc3)[C@@H](c3ccc(Cl)cc3)N2C(=O)N2CCNC(=O)C2)c(OC(C)C)c1 [Nutlin-3] + COc1cc(N2CCC(N3CCN(C)CC3)CC2)ccc1Nc1ncc(Cl)c(Nc2ccccc2S(=O)(=O)C(C)C)n1 [NVP-TAE684] (first compound 0.1 µM, partner dose 0.08 µM) | 55.6 | 142 | 152 | 157 | 145 | 103 | 194 | 73.1 | 89.6 | 171 | 74.7 | 56.4 | 107 | 87.4 | 90.2 | 153 |
| CC1(C)CCC(c2ccc(Cl)cc2)=C(CN2CCN(c3ccc(C(=O)NS(=O)(=O)c4ccc(N[C@H](CCN5CCOCC5)CSc5ccccc5)c(S(=O)(=O)C(F)(F)F)c4)cc3)CC2)C1 + Cn1cc(/C=C2\C(=O)Nc3cccnc32)c2ccccc21 [GW441756] (first compound 0.4 µM, partner dose 0.4 µM) | 53.8 | 85.1 | 61.6 | 64.7 | 142 | 34.4 | 238 | 116 | 107 | 106 | 185 | 72.6 | 493 | 55 | 165 | 88.9 |
| Cn1sc(=O)n(Cc2ccccc2)c1=O + C=CCn1c(=O)c2cnc(Nc3ccc(N4CCN(C)CC4)cc3)nc2n1-c1cccc(C(C)(C)O)n1 [MK1775] (first compound 0.4 µM, partner dose 0.02 µM) | 147 | 62.8 | 58.7 | 163 | 39.6 | 82.2 | 75.1 | 185 | 691 | 97.9 | 73.4 | 47.8 | 113 | 59.4 | 136 | 52.7 |
| CCCCCCCCc1ccc(CCC(N)(CO)CO)cc1 [fingolimod] + Cn1cncc1[C@@](N)(c1ccc(Cl)cc1)c1ccc2c(c1)c(-c1cccc(Cl)c1)cc(=O)n2C [tipifarnib] (first compound 2 µM, partner dose 0.01 µM) | 15.1 | 84.4 | 66.1 | 26 | 191 | 93.9 | 73.1 | 66.4 | 116 | 97.7 | 120 | 179 | 88.4 | 420 | 94.9 | 170 |
| CCCCCCCCc1ccc(CCC(N)(CO)CO)cc1 [fingolimod] + COc1ccc2c(c1)CCC1C2CCC2(C)C(NCCCCCCN3C(=O)C=CC3=O)CCC12 [U73122] (first compound 2 µM, partner dose 0.4 µM) | 148 | 59.3 | 97.7 | 141 | 118 | 87.3 | 340 | 43.4 | 75.9 | 144 | 89.2 | 163 | 105 | 41.8 | 84.5 | 48.8 |
| C[C@@H](N)c1ccc(C(=O)Nc2ccnc3[nH]ccc23)cc1 + NC(=O)Nc1cc(-c2cccc(F)c2)sc1C(=O)N[C@H]1CCCNC1 [AZD7762] (first compound 0.4 µM, partner dose 0.02 µM) | 160 | 119 | 126 | 41.2 | 90.9 | 81 | 42.3 | 65.8 | 84.1 | 216 | 32.7 | 220 | 122 | 26.9 | 246 | 55.7 |
| NC1(c2ccc(-c3nc4ccn5c(=O)[nH]nc5c4cc3-c3ccccc3)cc2)CCC1 + CC(C)CCN1c2nc(Nc3cc(F)c(O)c(F)c3)ncc2N(C)C(=O)C1C [BID1870] (first compound 0.4 µM, partner dose 0.2 µM) | 105 | 81.5 | 71 | 59.5 | 191 | 145 | 322 | 70.2 | 266 | 141 | 181 | 204 | 92.3 | 59.6 | 112 | 68 |
| Cn1sc(=O)n(Cc2ccccc2)c1=O + CO[C@@H]1[C@H](N(C)C(=O)c2ccccc2)C[C@H]2O[C@]1(C)n1c3ccccc3c3c4c(c5c6ccccc6n2c5c31)C(=O)NC4 [Midostaurin] (first compound 0.4 µM, partner dose 0.08 µM) | 37.7 | 448 | 74.6 | 73.8 | 78.8 | 124 | 63.6 | 102 | 134 | 74.5 | 76.5 | 172 | 99.6 | 78.9 | 110 | 220 |
| NC(=O)c1ccc(N(C(N)=O)c2c(F)cccc2F)nc1-c1ccc(F)cc1F + O=S(=O)(c1ccccc1)N(CC(F)(F)F)c1ccc(C(O)(C(F)(F)F)C(F)(F)F)cc1 [T0901317] (first compound 0.4 µM, partner dose 1.4 µM) | 136 | 38.6 | 111 | 61.6 | 86.9 | 113 | 42.2 | 84.5 | 44.4 | 286 | 29.4 | 53.7 | 112 | 90.2 | 89.1 | 46.1 |
| NC(=O)c1ccc(N(C(N)=O)c2c(F)cccc2F)nc1-c1ccc(F)cc1F + C[C@@H]1CCN(C(=O)CC#N)C[C@@H]1N(C)c1ncnc2[nH]ccc12 [CP690550] (first compound 0.4 µM, partner dose 1 µM) | 121 | 220 | 101 | 91.5 | 53.8 | 197 | 54.4 | 149 | 110 | 126 | 68.4 | 69.1 | 119 | 67.5 | 51.9 | 62.9 |
| CC(=O)O[C@@]12CO[C@@H]1C[C@H](O)[C@@]1(C)C(=O)[C@H](O)C3=C(C)[C@@H](OC(=O)[C@H](O)[C@@H](NC(=O)OC(C)(C)C)c4ccccc4)C[C@@](O)([C@@H](OC(=O)c4ccccc4)[C@H]21)C3(C)C [Docetaxel] + OCCn1cc(-c2cnc3nnn(Cc4ccc5ncccc5c4)c3n2)cn1 [PF04217903] (first compound 0.0001 µM, partner dose 1 µM) | 620 | 726 | 311 | 256 | 417 | 629 | 190 | 184 | 275 | 716 | 696 | 646 | 168 | 134 | 143 | 620 |

A few values from above:
Entry of NC(=O)c1ccc(N(C(N)=O)c2c(F)cccc2F)nc1-c1ccc(F)cc1F + O=S(=O)(c1ccccc1)N(CC(F)(F)F)c1ccc(C(O)(C(F)(F)F)C(F)(F)F)cc1 [T0901317] (first compound 0.4 µM, partner dose 1.4 µM) under cleaved PARP positive nuclei fraction [7] [%]: 42.2
Entry of CCCCCCCCc1ccc(CCC(N)(CO)CO)cc1 [fingolimod] + CC(C)CCN1c2nc(Nc3cc(F)c(O)c(F)c3)ncc2N(C)C(=O)C1C [BID1870] (first compound 2 µM, partner dose 0.2 µM) under cleaved PARP positive nuclei fraction [1] [%]: 41
